PubChem BioAssay AID2685 (National Center for Advancing Translational Sciences (NCATS), 2010)
This is one part of the list. These are further read-outs of the screen, such as a control signal, another cell line or another target. No call is given for them. The list favours compounds with an active or inconclusive main result. Words in brackets tell the shape of the fitted curve; partial curves, single points and poor fits give uncertain potencies.

Experiment: qHTS Assay for Lipid Storage Modulators in Drosophila S3 Cells;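 as to cell number change: cells counted by Cell Tracker Red CMTPX staining in the red channel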
Conditions: BODIPY lipid droplet fluorescence, 18-24 h; for cell number change: measured here: cell count max response, cells fed with added oleic acid
Summary of the method: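 Drosophila S3 cells loaded with oleic acid (400 uM, as added) and compounds at several concentrations; lipid droplets imaged by 488-nm laser-scanning cytometry, 500–530 nm intensity and object ratio to cell channel. Percent activity normalized to 20 uM Triacsin C.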

[1] = measured here: cell number channel AC50, cells fed with added oleic acid
[2] = measured here: lipid fluorescence (Fed channel) AC50, cells fed with added oleic acid

SMILES	cell number change [%]	AC50 [1]	AC50 [2]
CC(=O)Nc1ccc(-c2csc(Nc3cc(C)ccn3)n2)cc1	-38.1	29.1 µM [falling, partial curve, poor fit]	32.6 µM [falling, partial curve]
Cc1[nH]c(=O)[nH]c(=O)c1N1CCOCC1	-23		0.164 µM [falling, full curve]
CCc1cccc(NC(=O)C2CCCN(c3ncnc4c3nc3n4CCCCC3)C2)c1 (centres undefined)	7.63		
O=C(Nc1ccccc1C(=O)NCCN1CCOCC1)c1ccco1		6.51 µM [rising, single point]	
COCCn1c(=NC(=O)c2ccc(S(=O)(=O)N3CCCc4ccccc43)cc2)sc2cc(S(C)(=O)=O)ccc21	4.74		3.26 µM [rising, single point]
Cc1cc(C(=O)Nc2ccc(Br)cc2)c2ccccc2n1	-2.19		0.116 µM [rising, full curve, poor fit]
C=CCn1c(O)c(C2=c3ccccc3=NC2=O)sc1=Nc1ccc(O)cc1	-69	25.9 µM [falling, partial curve]	18.4 µM [falling, single point]
CCC(=NCCc1c(C)[nH]c2ccc(OC(F)(F)F)cc12)C1=C(O)CC(c2ccccc2)CC1=O (centres undefined)	-28.5		18.4 µM [falling, single point]
CC(=O)N1Cc2[nH]c3ccccc3c2CC1C(=O)O (centres undefined)	1.29		0.00461 µM [falling, full curve, poor fit]
CC1C(=O)N2CCCc3cc(NC(=O)C(=O)NCCc4ccccc4)cc1c32 (centres undefined)	-10.8	7.31 µM [falling, single point]	0.731 µM [falling, partial curve, poor fit]
O=C(Nc1ccc([N+](=O)[O-])cn1)C1CC1	-3.48		
Clc1ccc(C2Nc3cccc4cccc(c34)N2)cc1Cl	-17.9		6.51 µM [rising, single point]
COc1ccc(Nc2nc3ccc(C)cc3n3cnnc23)cc1Cl	127	29.1 µM [rising, single point]	23.1 µM [rising, single point]
O=C1ON=C(c2ccc(Cl)cc2)/C1=C/c1ccc(O)cc1	-29.5		29.1 µM [falling, partial curve, poor fit]
Cc1cccc(NC(=O)CSc2nnc(CNC(=O)c3ccco3)o2)c1C	-2.83	0.259 µM [rising, partial curve, poor fit]	0.58 µM [falling, single point]
Cc1csc(NC(=O)COc2ccc3c(c2)CCC3)n1	-33.8	18.4 µM [falling, partial curve, poor fit]	29.1 µM [rising, single point]
COc1ccc(OC)c(NC(=O)CSc2nccn2Cc2ccco2)c1	-10.1		
COCCN(C(=O)c1cccc(N2C(=O)CCC2=O)c1)c1nc(-c2ccc([N+](=O)[O-])cc2)cs1		1.03 µM [rising, partial curve, poor fit]	
N#Cc1ccc(OCC(=O)Nc2ccc3[nH]c(=O)[nH]c3c2)cc1	-17.1	0.517 µM [falling, full curve]	0.461 µM [falling, full curve, poor fit]

SMILES	cell number change [%]	AC50 [1]	AC50 [2]
CN=C1c2c(-c3ccccc3)c3cc(OC)ccc3n2CCN1C	-1.29		0.00651 µM [falling, full curve, poor fit]
COc1ccc(C(=O)NCCc2ccccc2F)cc1OC1CCN(C(C)=O)CC1	25.2		7.31 µM [rising, partial curve, poor fit]
Cc1cc2c([nH]c3ccccc32)c(C)n1	-6.56		
C[C@H]1CCC[C@]2(CC(=O)c3cc(F)ccc3O2)C1	-45.8	29.1 µM [falling, partial curve, poor fit]	6.51 µM [falling, single point]
O=C(N1CCOCC1)n1nnc2ccccc21	-14		3.26 µM [falling, single point]
Cc1ccc2nc(NC(=O)c3ccco3)sc2c1		1.3 µM [rising, partial curve]	32.6 µM [rising, single point]
CC(C)c1ccc(/C=C2\SC(=O)N(CC(=O)NC3C=CS(=O)(=O)C3)C2=O)cc1 (centres undefined)			4.11 µM [falling, partial curve]
CCC(C)NC(=O)CSc1ncccc1C(=O)O (centres undefined)	-14.6		
CCn1cc(C(=O)NCc2ccc(OC)cc2OC)c(=O)c2ccc(C)nc21	17.1		0.82 µM [rising, single point]
CCCCCOc1ccc(/C=C/C(=O)NCCc2nc3ccccc3[nH]2)cc1OC			1.84 µM [falling, partial curve]
S=C(NCCc1ccccc1)N1CCN(C2CCCCC2)CC1	22.7	0.82 µM [falling, single point]	
CCN(CC)S(=O)(=O)c1ccc(N2CCCC2)c(NC(=O)Cc2cc(OC)c(OC)c(OC)c2)c1	8.97		0.0651 µM [rising, full curve, poor fit]
C/C(=N\NC(=O)C1CC1(C)c1ccccc1)c1ccco1 (centres undefined)	13		0.092 µM [rising, full curve, poor fit]
O=C(CCC(=O)c1ccc(F)cc1)NCc1ccccc1C(F)(F)F	-22.4		16.4 µM [rising, single point]
CC(=O)c1c(C(C)=O)c(C)n(NC(=O)c2ccccc2O)c1C	-5.89		6.51 µM [falling, single point]
O=C(O)Cc1nc(-c2cccnc2)sc1-c1ccc(Br)cc1	24.4		1.3 µM [rising, full curve, poor fit]
CCOC(=O)C(O)(CC(=O)c1ccc(Cl)cc1)C(=O)OCC	-38.6	29.1 µM [falling, single point]	
C/C(=N/NC(=O)c1ccccc1)c1ccc(NC(=O)C(F)(F)F)cc1	6.05		
O=C(NC1CCSc2ccccc21)c1cccc(OC(F)F)c1 (centres undefined)	5.83		23.1 µM [rising, single point]

Filtered by structure, those above with four or more nitrogen atoms
SMILES	cell number change [%]	AC50 [1]	AC50 [2]
CC(=O)Nc1ccc(-c2csc(Nc3cc(C)ccn3)n2)cc1	-38.1	29.1 µM [falling, partial curve, poor fit]	32.6 µM [falling, partial curve]
CCc1cccc(NC(=O)C2CCCN(c3ncnc4c3nc3n4CCCCC3)C2)c1 (centres undefined)	7.63		
COc1ccc(Nc2nc3ccc(C)cc3n3cnnc23)cc1Cl	127	29.1 µM [rising, single point]	23.1 µM [rising, single point]
Cc1cccc(NC(=O)CSc2nnc(CNC(=O)c3ccco3)o2)c1C	-2.83	0.259 µM [rising, partial curve, poor fit]	0.58 µM [falling, single point]
COCCN(C(=O)c1cccc(N2C(=O)CCC2=O)c1)c1nc(-c2ccc([N+](=O)[O-])cc2)cs1		1.03 µM [rising, partial curve, poor fit]	
N#Cc1ccc(OCC(=O)Nc2ccc3[nH]c(=O)[nH]c3c2)cc1	-17.1	0.517 µM [falling, full curve]	0.461 µM [falling, full curve, poor fit]
O=C(N1CCOCC1)n1nnc2ccccc21	-14		3.26 µM [falling, single point]
